Test results as given in ChEMBL document CHEMBL4219137, “A novel templates of piperazinyl-1,2-dihydroquinoline-3-carboxylates: Synthesis, anti-microbial evaluation and molecular docking studies” (Bioorg Med Chem Lett, 2018).
In brackets after ≈: the same amount, converted by molar mass.

Tested on: Pseudomonas aeruginosa
Assay: microbe, parasite or virus in culture
Settings: MTCC 2453, 24 h

Compound: O=C(O)c1cn(C2CC2)c2cc(N3CCNCC3)c(F)cc2c1=O [CIPROFLOXACIN]
- MIC: 0.9 µg/mL (≈ 2.72 µM)
